In assay [1] the target is GST-AR ZFR fusion protein (UniProt P10275). In words: GST pull-down, 35S-labeled in vitro translated protein, SDS-PAGE and fluorography.
The target of assay [2] is full-length AR fused to LexA (LexA-AR) (UniProt P10275). As to the kind of experiment: yeast two-hybrid, L40 cells, with 50 nM testosterone.

Chains of the proteins cited; added tags and fusions are not shown. Lines headed by an entry give the natural chain unless they say otherwise; changes in a name come on top. Residues count along the entry.
UniProt P10275: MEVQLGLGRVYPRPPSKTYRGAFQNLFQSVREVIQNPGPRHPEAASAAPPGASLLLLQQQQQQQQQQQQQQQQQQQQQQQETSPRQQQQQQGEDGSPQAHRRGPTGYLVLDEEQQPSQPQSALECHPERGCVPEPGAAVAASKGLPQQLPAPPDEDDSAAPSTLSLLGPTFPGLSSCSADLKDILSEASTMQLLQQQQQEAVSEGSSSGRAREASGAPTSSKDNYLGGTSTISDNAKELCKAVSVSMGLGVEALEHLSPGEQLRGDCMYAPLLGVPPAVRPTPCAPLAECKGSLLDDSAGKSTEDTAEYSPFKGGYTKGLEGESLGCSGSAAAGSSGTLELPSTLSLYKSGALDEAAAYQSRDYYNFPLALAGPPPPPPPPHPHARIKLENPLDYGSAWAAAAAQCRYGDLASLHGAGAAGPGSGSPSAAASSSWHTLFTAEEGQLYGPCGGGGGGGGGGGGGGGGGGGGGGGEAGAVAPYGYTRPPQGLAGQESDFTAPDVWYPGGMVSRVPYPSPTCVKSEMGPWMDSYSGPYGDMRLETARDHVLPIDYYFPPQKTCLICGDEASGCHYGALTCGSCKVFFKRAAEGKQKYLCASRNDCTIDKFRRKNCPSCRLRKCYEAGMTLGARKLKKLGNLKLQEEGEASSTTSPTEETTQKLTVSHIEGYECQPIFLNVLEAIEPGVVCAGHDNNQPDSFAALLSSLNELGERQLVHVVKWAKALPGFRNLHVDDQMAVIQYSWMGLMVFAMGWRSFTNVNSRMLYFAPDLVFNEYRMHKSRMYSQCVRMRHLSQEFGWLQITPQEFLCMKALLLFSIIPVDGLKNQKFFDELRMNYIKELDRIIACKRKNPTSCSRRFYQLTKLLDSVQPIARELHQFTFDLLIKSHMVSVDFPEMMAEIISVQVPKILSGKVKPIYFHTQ
GST-AR ZFR fusion protein: residues 555-645 of P10275

No constants are given. Whether binding was seen depends on the method and setting. For some assays here: In cells and extracts the contact can be indirect. Some entries that bind do so weakly or less than the wild type. For some assays here: Tags and fused reporters may be left off the sequences shown.

B1: Full-length ARIP4 labeled with [35S]methionine by translation in vitro (protein)
chain: MSDESASGSDPDLDPDVELEDEEEEEEEEEVAVEEHDRDDEEGLLDDTSLEGMCGTEHAQLGEDGQRPPRCTSTTSSQSEPSEQLRHQGKILASEDPKKKRAQKPSHMRRNIRKLLREDQLEPVTKAAQQEELERRKRLEQQRKEYAAPIPTVPLEFLPEEIVLRASDGPQLPPRVLAQEVICLDSSSGSEDEKSSRDEVIELSSGEEDTLHIVDSSESVSEEDEEEEKGGTHVNDALNQHDALGRVLVNLNHPPEEENVFLAPQLARAVKPHQIGGIRFLYDNLVESLERFKTSSGFGCILAHSMGLGKTLQVISFIDVLFRHTPAKTVLAIVPVNTLQNWLAEFNMWLPAPEALPADSKPEEVQPRFFKVHILNDEHKTVASRAKVTADWVSEGGVLLMGYEMYRLLTLKKSLATSRPKKTKKRSHPVIIDLDEEDRQQEFRREFEKALCRPGPDVVICDEGHRIKNCQASTSQALKNIRSRRRVVLTGYPLQNNLIEYWCMVDFVRPDFLGTRQEFSNMFERPILNGQCIDSTPQDVRLMRYRSHVLHSLLEGFVQRRGHTVLKIHLPAKEENVILVRLSQIQRDLYTQFMDRFRDCGTSGWLGLNPLKAFCVCCKIWNHPDVLYEALQKENLANEQDLDVEELGSAGTSARCPPHGTKVKGEDSALPSSMGEATNSKFLQGVGFNPFQERGNNIVTYEWAKELLTNYQTGVLENSPKMVLLFHLIEESVKLGDKILVFSQSLSTLALIEEFLGKRDMPCLPGAEGQGTQKWVRNVSYFRLDGSTPAFERERLINQFNDPSNLTTWLFLLSTRAGCLGVNLIGANRVVVFDASWNPCHDAQAVCRVYRYGQKKPCHIYRLVADYTLEKKIYDRQISKQGMSDRVVDDLNPMLNFTRKEVENLLHFVEKEPAPQTSLDIKGIKESVLQLACLKYPHLITKEPFEHESLLLNRKDHKLTKAEKKAAKKSYEEDKRTSVPYTRPSYAQYYPASDQSLTSIPAFSQRNWQPTLKGDEKPVASVRPVQSTPIPMMPRHVPLSGGVSSASSTNTSMNFPINYLQRAGVLVQKVVTTTDIVIPGLNSSTDVQARINAGESIHIIRGTKGTYIRTSDGRIFAVRATGKPKAPEDGRMAASGSQGPSLASTSNGRHSASSPKAPDPEGLARPVSPDSPEIISELQQYADVAAARESRQSSPSISAALPGPPGQLMDNSTIPGTALGTEPCLGGHCLNSSLLVTGQPSGGRHPVLDLRGHKRKLATPSVTQESIRRRSRKGHLPAPVQPYEHGYPVSGGFAMPPVSLNHNLTTPFTSQAGENSLFMGSNPSYYQLSNLLADARLVFPVTTDPLVPAGPVSSSSTATSVTASNPSFMLNPSVPGMLPSYSLPFSQPLLSEPRMFAPFPSPGLPSNLSRGVSVYPGYMSPHAGYPAGGLLRSQVPPFDSHEVAEVGFSSNDDEDKDDDVIEVTGK
modifications: [35S]methionine label
Consider B1, for which, in assay [1], the binding result was “binds”.

B2: VP16 AD fused to ARIP4 (amino acids 86-227) (VP16 AD-ARIP4 ID) (protein)
chain: RHQGKILASEDPKKKRAQKPSHMRRNIRKLLREDQLEPVTKAAQQEELERRKRLEQQRKEYAAPIPTVPLEFLPEEIVLRASDGPQLPPRVLAQEVICLDSSSGSEDEKSSRDEVIELSSGEEDTLHIVDSSESVSEEDEEE
Turning to B2, the binding entry in assay [2] is listed as “binds”.

Source of the values: patent US20030077800A1.
